Binding data for 11 molecules are collected here from PMC11810119.

Protein sequences, listed by entry. Tags and fused reporters are not part of them. Lines headed by an entry give the natural chain unless they say otherwise; changes in a name come on top. Chains listed by the source or under a name are the forms on record and can include a tag or linker.
UniProt O35889: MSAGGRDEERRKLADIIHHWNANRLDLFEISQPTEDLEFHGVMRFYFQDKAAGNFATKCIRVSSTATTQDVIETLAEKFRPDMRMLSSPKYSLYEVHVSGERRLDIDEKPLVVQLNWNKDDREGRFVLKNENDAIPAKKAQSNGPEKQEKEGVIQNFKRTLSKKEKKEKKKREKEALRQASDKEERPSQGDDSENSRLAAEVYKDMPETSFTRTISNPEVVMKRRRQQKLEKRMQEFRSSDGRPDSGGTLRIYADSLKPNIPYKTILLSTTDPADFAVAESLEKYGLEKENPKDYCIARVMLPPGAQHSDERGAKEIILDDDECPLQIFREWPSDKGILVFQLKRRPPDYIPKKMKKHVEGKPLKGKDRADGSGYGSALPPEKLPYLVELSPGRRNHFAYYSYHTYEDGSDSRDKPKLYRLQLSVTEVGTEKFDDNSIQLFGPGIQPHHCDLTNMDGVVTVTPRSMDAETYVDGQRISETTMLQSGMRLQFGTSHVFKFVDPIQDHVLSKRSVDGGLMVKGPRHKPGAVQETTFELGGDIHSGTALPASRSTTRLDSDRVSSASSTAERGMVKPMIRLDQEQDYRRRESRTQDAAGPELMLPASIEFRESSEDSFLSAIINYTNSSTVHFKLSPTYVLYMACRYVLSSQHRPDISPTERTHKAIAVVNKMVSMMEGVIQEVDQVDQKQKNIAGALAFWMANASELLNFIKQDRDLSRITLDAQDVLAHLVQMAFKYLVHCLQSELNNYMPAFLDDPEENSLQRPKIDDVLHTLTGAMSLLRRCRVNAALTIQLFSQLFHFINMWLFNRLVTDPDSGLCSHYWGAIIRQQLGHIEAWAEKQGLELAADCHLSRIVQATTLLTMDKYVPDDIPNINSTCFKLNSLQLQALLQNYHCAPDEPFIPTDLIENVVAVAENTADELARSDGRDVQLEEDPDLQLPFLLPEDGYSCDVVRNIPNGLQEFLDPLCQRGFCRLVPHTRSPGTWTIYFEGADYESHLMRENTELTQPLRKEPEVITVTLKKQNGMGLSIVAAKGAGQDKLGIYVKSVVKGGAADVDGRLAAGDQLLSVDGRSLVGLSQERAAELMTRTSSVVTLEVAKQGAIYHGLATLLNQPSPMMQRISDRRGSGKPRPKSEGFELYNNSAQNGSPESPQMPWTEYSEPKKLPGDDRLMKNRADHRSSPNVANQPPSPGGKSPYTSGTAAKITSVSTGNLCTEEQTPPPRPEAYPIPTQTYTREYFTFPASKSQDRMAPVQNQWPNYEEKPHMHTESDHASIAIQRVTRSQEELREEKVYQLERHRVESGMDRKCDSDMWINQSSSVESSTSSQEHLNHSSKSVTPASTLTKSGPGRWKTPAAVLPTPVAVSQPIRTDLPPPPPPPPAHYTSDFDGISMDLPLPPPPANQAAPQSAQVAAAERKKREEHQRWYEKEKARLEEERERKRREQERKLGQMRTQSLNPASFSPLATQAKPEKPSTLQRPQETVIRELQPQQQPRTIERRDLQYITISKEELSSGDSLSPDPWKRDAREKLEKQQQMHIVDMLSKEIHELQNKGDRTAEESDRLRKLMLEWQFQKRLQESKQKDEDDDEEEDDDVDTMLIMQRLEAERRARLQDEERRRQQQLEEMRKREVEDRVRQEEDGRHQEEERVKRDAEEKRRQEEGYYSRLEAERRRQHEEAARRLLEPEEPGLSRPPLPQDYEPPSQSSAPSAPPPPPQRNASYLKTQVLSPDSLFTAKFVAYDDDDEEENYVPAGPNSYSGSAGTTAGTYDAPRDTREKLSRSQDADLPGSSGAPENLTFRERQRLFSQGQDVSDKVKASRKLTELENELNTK
UniProt A0A8P0N4K0: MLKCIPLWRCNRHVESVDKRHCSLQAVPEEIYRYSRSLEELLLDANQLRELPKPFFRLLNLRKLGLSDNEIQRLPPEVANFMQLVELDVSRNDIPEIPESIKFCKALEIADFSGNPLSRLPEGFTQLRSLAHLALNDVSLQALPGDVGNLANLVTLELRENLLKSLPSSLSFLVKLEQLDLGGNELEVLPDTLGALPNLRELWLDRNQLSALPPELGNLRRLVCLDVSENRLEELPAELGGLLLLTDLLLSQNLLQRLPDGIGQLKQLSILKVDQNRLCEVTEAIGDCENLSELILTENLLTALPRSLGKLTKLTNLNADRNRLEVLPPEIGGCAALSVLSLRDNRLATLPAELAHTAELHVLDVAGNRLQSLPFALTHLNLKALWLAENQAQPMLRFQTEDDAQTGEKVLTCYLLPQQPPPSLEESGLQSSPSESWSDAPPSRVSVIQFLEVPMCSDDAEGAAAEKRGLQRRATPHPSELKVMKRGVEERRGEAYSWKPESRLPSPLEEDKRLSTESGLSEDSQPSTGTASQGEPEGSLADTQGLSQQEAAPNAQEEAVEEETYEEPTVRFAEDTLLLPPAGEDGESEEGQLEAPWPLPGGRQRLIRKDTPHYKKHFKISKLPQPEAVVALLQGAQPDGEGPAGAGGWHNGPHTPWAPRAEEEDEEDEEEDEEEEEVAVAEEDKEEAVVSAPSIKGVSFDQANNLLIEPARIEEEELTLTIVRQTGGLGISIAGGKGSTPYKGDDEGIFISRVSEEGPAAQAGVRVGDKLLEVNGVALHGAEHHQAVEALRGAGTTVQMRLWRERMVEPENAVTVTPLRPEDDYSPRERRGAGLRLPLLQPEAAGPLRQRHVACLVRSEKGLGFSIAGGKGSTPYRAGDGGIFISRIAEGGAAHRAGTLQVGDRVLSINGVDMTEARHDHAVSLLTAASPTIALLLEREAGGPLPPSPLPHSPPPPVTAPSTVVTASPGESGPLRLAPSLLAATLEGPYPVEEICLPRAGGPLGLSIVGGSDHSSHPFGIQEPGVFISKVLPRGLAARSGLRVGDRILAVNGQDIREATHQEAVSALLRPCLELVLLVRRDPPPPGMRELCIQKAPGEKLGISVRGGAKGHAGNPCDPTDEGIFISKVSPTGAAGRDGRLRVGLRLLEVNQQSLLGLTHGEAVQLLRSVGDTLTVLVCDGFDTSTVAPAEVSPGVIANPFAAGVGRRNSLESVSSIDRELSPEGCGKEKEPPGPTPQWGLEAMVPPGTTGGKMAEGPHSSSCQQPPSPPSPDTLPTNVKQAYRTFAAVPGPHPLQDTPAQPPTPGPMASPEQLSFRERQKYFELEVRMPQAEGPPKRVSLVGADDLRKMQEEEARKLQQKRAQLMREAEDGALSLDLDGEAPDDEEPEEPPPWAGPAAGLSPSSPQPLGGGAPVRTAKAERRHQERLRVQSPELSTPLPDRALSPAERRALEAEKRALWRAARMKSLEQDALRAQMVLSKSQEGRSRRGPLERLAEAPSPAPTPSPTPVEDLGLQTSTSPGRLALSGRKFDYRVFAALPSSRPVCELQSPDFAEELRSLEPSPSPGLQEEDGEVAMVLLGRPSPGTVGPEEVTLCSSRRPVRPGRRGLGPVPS
UniProt Q6Q7P4: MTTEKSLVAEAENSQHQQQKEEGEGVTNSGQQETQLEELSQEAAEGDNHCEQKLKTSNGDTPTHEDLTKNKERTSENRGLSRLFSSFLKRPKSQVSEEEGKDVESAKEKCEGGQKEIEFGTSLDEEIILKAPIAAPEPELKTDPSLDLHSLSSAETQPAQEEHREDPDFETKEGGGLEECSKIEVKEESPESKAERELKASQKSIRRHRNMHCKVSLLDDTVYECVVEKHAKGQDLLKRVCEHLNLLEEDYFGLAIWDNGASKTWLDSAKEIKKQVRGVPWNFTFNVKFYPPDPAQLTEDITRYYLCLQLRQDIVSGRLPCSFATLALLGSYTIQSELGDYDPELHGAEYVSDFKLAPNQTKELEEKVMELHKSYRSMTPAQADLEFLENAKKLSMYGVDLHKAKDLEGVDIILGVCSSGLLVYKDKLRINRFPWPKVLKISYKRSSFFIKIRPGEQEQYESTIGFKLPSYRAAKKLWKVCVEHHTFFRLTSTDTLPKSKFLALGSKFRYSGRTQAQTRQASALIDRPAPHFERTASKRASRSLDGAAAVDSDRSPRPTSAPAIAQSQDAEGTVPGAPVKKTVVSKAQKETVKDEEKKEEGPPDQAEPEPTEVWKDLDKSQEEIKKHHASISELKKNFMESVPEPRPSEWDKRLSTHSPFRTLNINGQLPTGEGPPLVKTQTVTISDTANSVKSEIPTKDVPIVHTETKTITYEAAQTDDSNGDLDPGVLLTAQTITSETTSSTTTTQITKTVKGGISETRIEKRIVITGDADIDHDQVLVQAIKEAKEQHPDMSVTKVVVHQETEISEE
UniProt A0A8I3NZ94: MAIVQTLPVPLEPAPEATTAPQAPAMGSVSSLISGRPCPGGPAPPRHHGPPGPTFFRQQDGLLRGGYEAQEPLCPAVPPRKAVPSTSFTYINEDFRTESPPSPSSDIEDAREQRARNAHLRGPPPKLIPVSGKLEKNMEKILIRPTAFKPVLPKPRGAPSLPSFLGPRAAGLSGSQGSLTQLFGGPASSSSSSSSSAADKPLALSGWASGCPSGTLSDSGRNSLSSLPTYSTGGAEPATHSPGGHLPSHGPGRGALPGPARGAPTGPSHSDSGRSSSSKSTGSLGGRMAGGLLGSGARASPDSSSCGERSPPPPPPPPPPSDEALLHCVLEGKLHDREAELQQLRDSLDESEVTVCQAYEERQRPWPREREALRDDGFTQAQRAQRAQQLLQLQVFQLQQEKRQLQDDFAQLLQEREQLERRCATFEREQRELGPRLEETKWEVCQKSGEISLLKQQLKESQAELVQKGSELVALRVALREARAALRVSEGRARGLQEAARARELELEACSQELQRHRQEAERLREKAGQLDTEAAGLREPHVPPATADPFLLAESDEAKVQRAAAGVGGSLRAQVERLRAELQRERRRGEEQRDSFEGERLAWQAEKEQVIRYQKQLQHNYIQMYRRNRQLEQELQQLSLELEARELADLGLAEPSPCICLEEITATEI
UniProt Q8MJ47: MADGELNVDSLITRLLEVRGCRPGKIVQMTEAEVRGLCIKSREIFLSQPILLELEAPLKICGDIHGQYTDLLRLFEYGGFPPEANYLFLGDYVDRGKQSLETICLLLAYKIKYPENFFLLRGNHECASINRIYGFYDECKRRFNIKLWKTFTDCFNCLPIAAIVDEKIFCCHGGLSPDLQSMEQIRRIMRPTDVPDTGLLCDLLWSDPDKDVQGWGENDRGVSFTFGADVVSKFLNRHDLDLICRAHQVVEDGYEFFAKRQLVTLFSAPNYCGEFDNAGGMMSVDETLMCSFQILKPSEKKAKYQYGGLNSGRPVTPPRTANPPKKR
UniProt A0A8I3RXT2: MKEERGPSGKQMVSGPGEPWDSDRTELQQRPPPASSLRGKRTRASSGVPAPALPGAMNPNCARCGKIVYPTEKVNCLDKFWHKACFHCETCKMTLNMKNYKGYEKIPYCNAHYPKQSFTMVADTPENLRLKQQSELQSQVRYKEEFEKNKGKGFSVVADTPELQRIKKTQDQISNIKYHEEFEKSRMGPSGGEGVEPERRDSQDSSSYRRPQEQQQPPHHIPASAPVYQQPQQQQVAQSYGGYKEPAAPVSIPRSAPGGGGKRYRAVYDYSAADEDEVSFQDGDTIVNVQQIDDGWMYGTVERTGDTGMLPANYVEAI
ISG15 ubiquitin like modifier (A0A8I3P342, form named): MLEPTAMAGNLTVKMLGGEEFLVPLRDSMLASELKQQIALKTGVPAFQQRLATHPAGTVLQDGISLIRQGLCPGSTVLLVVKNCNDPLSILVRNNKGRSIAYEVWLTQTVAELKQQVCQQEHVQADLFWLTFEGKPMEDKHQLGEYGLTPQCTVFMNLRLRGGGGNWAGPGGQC
UniProt A0A8I3S0A8: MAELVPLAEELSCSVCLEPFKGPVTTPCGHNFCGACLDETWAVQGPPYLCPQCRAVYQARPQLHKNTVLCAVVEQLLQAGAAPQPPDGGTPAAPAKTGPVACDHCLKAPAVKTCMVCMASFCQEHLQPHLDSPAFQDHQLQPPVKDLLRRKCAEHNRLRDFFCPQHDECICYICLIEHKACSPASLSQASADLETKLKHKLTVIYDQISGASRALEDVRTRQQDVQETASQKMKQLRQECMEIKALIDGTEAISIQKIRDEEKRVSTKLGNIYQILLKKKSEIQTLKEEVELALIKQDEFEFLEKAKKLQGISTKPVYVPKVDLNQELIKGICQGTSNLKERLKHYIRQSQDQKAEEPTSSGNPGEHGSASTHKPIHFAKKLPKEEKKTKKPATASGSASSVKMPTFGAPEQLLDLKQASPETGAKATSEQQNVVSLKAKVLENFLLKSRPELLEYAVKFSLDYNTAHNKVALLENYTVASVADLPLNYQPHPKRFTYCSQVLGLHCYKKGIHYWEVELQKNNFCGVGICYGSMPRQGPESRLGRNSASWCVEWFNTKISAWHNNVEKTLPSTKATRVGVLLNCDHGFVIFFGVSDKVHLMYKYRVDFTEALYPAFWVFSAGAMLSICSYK

No constants are given. Whether binding was seen depends on the method and setting. In cells and extracts the contact can be indirect. A yes stands for co-enrichment or nearness to the bait. Other partners may have been found.

One experiment deals with Afadin-BL (rat) (UniProt O35889). Briefly: proximity labelling; BioID: BirA*-Afadin fusion expressed in MDCK cells (duplicates; one replicate each also in ZO-1/ZO-2 knock-down MDCK cells), 50 µM biotin for 24 h, lysates on streptavidin Dynabeads, trypsin digestion, label-free LC-MS/MS; hits SAINT >=0.9 versus BirA* alone.
In a further experiment the target is BL-Afadin (rat) (UniProt O35889). The description is as above.

For “Scribble planar cell polarity protein (from UniProt A0A8P0N4K0 1-1614)”, the binding result with Afadin-BL (rat) and with BL-Afadin (rat) was “binds” throughout.
For the molecule “Erythrocyte membrane protein band 4.1 (from UniProt Q6Q7P4 1-810)”, the binding result with Afadin-BL (rat) and with BL-Afadin (rat) was “binds” in each case.
As to “Leucine zipper putative tumor suppressor 2 (Protein LAPSER1) (from UniProt A0A8I3NZ94 1-670)”, the binding result with Afadin-BL (rat) and with BL-Afadin (rat) was “binds” each time.
As for “Serine/threonine-protein phosphatase (EC 3.1.3.16) (from UniProt Q8MJ47 1-327)”, the binding entry in the experiment with Afadin-BL (rat) and in the experiment with BL-Afadin (rat) was “binds” throughout.
For the molecule “LIM and SH3 domain protein 1 (from UniProt A0A8I3RXT2 1-318)”, the binding entry with Afadin-BL (rat) and with BL-Afadin (rat) was “binds” throughout.
“Discs large homolog 1 (from UniProt A0A8C0TYJ0 1-927)”: the binding result in the experiment with Afadin-BL (rat) and in the experiment with BL-Afadin (rat) was “binds” each time.
Regarding “ISG15 ubiquitin like modifier (from UniProt A0A8I3P342 1-174)”, the binding entry with Afadin-BL (rat) and in the experiment with BL-Afadin (rat) was “binds” each time.
Regarding “Tripartite motif containing 25 a ubiquitin E3 ligase (from UniProt A0A8I3S0A8 1-631)”, the binding entry with Afadin-BL (rat) and with BL-Afadin (rat) was “binds” throughout.
On to “Ras association domain family member 8 (from UniProt A0A8I3PTS8 1-419)”, for which the binding entry in the experiment with Afadin-BL (rat) and with BL-Afadin (rat) was “binds” each time.
Regarding “Tumor protein p53 binding protein 2=Aspp2 (from UniProt A0A8I3NPK4)”, the binding entry with Afadin-BL (rat) and with BL-Afadin (rat) was “binds” each time.

B1: Tight junction protein 3=ZO-3 (protein, UniProt O62683 1-898)
chain: MEELTIWEQHTATLCRDPRRGFGIAISGGRDRASGSVVVSDVVPGGPADGRLQTGDHVVMVNGVSMESVTSTFAIQILKTCTKLANITVKRPRKIQLPATKAGTSGRGRQGLEEEADCGQGYDGDTSSGSGRSWDKRSRRARTGRRNQAGSRGRRSPGGNSEANGLALVSGFKRLPRQDVHMRPVKSVLVRRTESEEFGVTLGSQIFIKHITDSGLAARNRGLQEGDLILQINGVSSENLSLSDTRRLIEKSEGKLTLLVLRDRGQFLVNIPPAVSDSDSDSSFLDDISALGSELSQAVPSHVPPPPPHAQRSLDSDGTDSPRDSPPLRRENSLDSRTISEPDAPRHSSYDIYRVPSSQSAEDRGYSPDSRVVRFHKGTTIGLRLAGGNDVGIFVSGVQEGSPADGQGIQEGDQILQVNDVPFRNLTREEAVQFLVALPPGEEVELVTQRNEDIFRKMVQSRVGDSFYIRTHFELEASPPSGLGFTRGDVFHVLDTLCPGPGPSGARGTHWLAVRMGRDLREQERGIIPNQSRAEQLASLESAQRAVGAGPGASVGSSARAEFWRLRGLRRGAKKSTQRSREDLSALTRQGHYPPYERVVLREASFKRPVVILGPVADIAMQKLTAEMPDQFGIADSVLRTDSPSKIIKLDTVRVIAEKNKHALLDVTPSAVERLNYVQYYPIVVFCAPESRAALKALRQWLAPASRRSARRLYAQAQKLRKHSEHLFTATIPLRGTSDTWYQELKAVVREQQTRPIWTAEDQLDNSSEDNLELPHRGLADSSADLSCDSRVNSDYETDGEGYTDGEGYTDVDEGPPAPALARSSEPVLEEEPRSPRDHGRASGARGAQVDRHPYHSQGRQDSMRTYGQEALKKKFTRARDVESSDEDGYDWGPATDL
With B1, the binding result with Afadin-BL (rat) and with BL-Afadin (rat) was “binds” each time.
